# Earlier results as cited in US20130338126A1, “Ophthalmic Suspension for Ocular Use” (Allergan, Inc., priority 2008, published 2013).
# At least one compound was matched to its structure with a doubt left.
# Tested on: bacterial conjunctivitis
# Settings: day 6 of treatment
smiles,measurement,value
CC1COc2c(N3CCN(C)CC3)c(F)cc3c(=O)c(C(=O)O)cn1c23 (stereo not shown) [ofloxacin],rates of microbiological cure,85.3%
